Source: the supplement of paper PMC10849652
Some of the results follow.

By UniProt entry, the sequences of proteins in these tests, tags left out. Where a name states a change or a piece, a line headed by the entry shows the natural chain unless it says otherwise.
UniProt P05362: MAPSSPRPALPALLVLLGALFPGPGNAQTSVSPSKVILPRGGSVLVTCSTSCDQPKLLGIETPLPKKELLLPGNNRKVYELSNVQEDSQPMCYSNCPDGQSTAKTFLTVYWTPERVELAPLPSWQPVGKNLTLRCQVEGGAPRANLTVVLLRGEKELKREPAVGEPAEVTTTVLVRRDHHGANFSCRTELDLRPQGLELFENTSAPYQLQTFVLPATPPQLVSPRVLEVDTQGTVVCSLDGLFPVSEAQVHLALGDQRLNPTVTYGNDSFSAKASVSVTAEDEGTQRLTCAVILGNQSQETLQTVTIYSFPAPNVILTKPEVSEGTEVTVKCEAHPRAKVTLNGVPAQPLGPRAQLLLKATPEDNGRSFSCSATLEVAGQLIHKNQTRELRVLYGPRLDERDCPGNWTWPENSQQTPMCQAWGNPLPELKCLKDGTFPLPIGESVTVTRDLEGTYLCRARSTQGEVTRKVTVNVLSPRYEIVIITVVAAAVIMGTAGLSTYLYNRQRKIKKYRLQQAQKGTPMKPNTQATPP
UniProt Q9BX68: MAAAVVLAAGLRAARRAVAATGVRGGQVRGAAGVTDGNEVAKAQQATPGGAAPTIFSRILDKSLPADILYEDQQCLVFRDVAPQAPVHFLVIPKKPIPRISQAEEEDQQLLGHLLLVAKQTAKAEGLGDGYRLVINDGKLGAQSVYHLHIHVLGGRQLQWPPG
UniProt Q8TB92: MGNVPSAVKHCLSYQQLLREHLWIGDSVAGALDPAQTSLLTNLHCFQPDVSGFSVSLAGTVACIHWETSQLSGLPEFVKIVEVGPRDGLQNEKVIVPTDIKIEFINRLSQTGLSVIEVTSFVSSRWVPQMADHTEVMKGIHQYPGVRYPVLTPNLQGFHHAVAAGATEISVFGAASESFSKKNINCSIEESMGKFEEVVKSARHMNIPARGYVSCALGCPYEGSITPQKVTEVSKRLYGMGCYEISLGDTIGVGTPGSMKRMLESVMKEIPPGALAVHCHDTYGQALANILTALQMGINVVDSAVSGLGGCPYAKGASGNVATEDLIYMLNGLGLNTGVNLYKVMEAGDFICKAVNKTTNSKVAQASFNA
UniProt Q9P2D0: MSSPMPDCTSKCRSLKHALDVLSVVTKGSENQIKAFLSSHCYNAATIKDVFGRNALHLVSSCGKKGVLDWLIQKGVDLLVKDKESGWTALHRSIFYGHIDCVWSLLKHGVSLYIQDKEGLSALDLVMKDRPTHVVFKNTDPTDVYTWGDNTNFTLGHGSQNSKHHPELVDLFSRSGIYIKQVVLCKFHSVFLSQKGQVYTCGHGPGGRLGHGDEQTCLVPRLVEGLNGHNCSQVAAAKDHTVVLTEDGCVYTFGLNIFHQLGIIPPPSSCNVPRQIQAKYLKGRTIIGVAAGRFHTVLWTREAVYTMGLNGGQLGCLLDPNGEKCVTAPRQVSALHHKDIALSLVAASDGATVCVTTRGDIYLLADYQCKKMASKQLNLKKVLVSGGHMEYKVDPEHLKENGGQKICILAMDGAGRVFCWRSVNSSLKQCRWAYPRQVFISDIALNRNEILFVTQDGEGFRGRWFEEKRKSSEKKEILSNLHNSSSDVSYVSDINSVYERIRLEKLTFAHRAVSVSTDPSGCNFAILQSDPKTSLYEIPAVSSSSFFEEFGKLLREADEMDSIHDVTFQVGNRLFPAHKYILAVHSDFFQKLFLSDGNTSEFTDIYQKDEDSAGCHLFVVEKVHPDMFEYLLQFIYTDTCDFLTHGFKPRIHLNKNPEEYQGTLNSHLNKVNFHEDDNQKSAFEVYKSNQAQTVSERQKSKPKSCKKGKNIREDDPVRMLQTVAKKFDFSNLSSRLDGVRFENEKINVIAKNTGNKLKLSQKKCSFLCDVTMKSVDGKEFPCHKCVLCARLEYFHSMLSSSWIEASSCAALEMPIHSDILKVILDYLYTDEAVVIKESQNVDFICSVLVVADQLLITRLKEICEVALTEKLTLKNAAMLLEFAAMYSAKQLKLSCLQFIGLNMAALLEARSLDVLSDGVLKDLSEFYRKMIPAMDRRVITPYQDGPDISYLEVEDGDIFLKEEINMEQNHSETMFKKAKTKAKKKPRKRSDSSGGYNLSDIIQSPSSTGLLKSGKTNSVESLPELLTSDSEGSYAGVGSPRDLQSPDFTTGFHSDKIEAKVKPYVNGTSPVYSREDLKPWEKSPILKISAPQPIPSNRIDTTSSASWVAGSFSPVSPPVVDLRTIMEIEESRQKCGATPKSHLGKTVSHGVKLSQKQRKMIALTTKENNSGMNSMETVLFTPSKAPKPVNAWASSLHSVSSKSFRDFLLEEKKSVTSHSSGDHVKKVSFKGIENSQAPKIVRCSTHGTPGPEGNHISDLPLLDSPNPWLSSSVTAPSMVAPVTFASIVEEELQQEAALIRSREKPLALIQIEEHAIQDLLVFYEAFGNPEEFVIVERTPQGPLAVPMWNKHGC
UniProt Q5SSJ5: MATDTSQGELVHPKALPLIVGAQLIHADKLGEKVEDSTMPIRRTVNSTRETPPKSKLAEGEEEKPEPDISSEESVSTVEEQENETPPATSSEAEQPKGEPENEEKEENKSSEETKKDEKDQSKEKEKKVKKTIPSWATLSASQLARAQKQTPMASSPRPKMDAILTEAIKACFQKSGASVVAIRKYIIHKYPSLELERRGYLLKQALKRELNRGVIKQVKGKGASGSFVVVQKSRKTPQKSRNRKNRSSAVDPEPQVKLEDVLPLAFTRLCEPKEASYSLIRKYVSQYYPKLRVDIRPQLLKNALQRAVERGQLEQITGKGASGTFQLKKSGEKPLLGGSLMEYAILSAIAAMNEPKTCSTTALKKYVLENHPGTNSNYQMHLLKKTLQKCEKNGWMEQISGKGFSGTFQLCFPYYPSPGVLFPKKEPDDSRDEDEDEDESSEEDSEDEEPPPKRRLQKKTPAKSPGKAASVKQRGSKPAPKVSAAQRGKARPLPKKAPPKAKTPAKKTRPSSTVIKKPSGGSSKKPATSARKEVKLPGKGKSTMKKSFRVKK
UniProt O75146: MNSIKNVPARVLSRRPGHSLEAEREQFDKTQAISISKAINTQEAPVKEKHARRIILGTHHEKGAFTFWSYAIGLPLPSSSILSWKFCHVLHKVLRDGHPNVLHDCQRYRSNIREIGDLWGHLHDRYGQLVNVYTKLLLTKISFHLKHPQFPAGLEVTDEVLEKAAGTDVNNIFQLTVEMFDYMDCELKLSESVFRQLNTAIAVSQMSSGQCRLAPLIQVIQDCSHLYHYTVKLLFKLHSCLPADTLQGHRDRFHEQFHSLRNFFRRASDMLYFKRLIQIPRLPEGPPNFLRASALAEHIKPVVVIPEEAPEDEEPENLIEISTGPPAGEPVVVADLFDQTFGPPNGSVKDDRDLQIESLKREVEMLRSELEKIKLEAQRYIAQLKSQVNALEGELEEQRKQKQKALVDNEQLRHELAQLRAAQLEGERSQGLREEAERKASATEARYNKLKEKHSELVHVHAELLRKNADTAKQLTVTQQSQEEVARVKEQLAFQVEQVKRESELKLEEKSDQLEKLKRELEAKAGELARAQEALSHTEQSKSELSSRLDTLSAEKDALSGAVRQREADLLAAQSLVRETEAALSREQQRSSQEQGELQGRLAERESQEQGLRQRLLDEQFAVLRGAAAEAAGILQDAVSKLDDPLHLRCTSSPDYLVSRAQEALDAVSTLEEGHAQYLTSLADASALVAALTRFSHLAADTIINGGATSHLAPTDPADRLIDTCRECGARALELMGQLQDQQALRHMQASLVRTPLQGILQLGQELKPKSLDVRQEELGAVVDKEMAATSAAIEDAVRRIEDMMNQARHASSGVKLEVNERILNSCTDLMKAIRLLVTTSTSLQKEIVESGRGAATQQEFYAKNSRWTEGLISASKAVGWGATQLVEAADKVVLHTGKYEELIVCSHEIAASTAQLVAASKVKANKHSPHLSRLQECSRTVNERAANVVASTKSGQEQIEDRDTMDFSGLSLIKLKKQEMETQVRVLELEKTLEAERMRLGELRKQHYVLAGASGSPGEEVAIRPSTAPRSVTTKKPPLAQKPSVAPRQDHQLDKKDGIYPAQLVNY
UniProt O43390: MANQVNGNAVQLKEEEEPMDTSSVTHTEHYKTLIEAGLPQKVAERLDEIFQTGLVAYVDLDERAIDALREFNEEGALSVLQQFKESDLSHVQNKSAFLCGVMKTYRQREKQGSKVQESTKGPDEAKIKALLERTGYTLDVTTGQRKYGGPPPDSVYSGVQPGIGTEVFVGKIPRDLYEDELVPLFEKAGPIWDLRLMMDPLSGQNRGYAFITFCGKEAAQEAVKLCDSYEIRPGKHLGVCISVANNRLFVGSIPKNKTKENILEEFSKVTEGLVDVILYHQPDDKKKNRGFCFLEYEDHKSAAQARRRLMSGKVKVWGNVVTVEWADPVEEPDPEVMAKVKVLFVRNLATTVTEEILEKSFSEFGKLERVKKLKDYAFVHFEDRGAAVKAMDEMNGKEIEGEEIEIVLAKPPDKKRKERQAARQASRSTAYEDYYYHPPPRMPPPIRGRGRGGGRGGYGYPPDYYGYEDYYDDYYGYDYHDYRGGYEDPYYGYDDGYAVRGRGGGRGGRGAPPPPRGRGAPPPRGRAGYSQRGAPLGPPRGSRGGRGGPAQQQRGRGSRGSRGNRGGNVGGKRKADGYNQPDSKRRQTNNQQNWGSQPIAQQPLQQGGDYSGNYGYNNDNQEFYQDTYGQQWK
UniProt P54652, whole entry, looked up: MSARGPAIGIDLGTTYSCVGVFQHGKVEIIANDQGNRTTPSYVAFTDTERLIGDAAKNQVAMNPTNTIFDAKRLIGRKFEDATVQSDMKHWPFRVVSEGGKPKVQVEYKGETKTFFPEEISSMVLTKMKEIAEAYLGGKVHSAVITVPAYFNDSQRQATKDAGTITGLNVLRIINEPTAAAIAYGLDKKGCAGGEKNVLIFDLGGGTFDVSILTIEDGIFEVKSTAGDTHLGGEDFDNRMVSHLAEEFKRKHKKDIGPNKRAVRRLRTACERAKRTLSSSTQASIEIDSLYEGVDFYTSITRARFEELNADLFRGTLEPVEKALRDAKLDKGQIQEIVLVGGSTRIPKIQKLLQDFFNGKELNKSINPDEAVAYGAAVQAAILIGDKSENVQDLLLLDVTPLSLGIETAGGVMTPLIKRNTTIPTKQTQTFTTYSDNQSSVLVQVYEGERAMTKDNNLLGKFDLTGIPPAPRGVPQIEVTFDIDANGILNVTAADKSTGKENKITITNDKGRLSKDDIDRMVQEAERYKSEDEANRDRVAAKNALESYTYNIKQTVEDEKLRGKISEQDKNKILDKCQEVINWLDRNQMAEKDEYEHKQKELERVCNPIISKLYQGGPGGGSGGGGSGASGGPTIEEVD
UniProt Q53T59: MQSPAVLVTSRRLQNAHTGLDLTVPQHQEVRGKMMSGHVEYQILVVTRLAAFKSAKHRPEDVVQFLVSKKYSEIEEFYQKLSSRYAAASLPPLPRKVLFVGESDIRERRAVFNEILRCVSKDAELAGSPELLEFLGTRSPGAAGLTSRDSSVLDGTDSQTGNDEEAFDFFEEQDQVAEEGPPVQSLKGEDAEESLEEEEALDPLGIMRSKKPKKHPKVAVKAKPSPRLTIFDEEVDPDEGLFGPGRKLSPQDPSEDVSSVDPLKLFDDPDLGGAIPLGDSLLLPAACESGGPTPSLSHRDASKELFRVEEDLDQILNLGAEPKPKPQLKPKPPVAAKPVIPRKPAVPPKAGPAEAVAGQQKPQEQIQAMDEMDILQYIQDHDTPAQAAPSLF

Key:
Test in all cases: log2 fold change, soluble protein after heating vs DMSO (PISA); higher = thermal stabilisation; K562 cells, 10 uM, 30 min; active = over 0.2 and 3.5 SD of the protein, either way, in both replicates (recomputed)
[1] = compound: COC1=CC=C(C=C1)CN2C=CC3=C2C=C(C=C3)C(=O)NO
In short: (§1)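 K562 cells at 2×10^6 cells/mL were treated with 10 μM compound for 30 min. Aliquots were heated for 3 min across 48°C-58°C, pooled, and extracted in PBS with 0.5% NP-40 at 4°C; soluble protein was the supernatant after 21,000xg for 90 min. Soluble protein was quantified by TMTpro 16plex LC-MS/MS with channel sums equalised, and reported as log2 fold change in thermal stability against DMSO controls, with values from duplicates.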

filanesib = compound: CON(C)C(=O)N1N=C(c2cc(F)ccc2F)S[C@@]1(CCCN)c1ccccc1 [filanesib]
In short: as §1

zotarolimus = compound: CO[C@H]1C[C@@H]2CC[C@@H](C)[C@@](O)(O2)C(=O)C(=O)N2CCCC[C@H]2C(=O)O[C@H]([C@H](C)C[C@@H]2CC[C@H](n3cnnn3)[C@H](OC)C2)CC(=O)[C@H](C)/C=C(\C)[C@@H](O)[C@@H](OC)C(=O)[C@H](C)C[C@H](C)/C=C/C=C/C=C/1C [zotarolimus]
In short: as §1

idasanutlin = compound: COc1cc(C(=O)O)ccc1NC(=O)[C@@H]1N[C@@H](CC(C)(C)C)[C@](C#N)(c2ccc(Cl)cc2F)[C@H]1c1cccc(Cl)c1F [idasanutlin]
In short: as §1

alisertib = compound: COc1cc(Nc2ncc3c(n2)-c2ccc(Cl)cc2C(c2c(F)cccc2OC)=NC3)ccc1C(=O)O [alisertib]
In short: as §1

[2] = compound: COc1cc2nc(-c3cc(F)ccc3O)nc(N[C@@H]3CNC[C@H]3C(C)(C)O)c2cc1OC
In short: as §1

gefitinib = compound: COc1cc2ncnc(Nc3ccc(F)c(Cl)c3)c2cc1OCCCN1CCOCC1 [gefitinib]
In short: as §1

[3] = compound: COc1cccc2cc(-c3nc([C@H]4CC[C@H](C(=O)O)CC4)n4ncnc(N)c34)[nH]c12
In short: as §1

lapatinib = compound: CS(=O)(=O)CCNCc1ccc(-c2ccc3ncnc(Nc4ccc(OCc5cccc(F)c5)c(Cl)c4)c3c2)o1 [lapatinib]
In short: as §1

pictilisib = compound: CS(=O)(=O)N1CCN(Cc2cc3nc(-c4cccc5[nH]ncc45)nc(N4CCOCC4)c3s2)CC1 [pictilisib]
In short: as §1

[4] = compound: CS(=O)(=O)c1ccc(-c2cnc(N)c(C(=O)Nc3ccccc3)n2)cc1
In short: as §1

crizotinib = compound: C[C@@H](Oc1cc(-c2cnn(C3CCNCC3)c2)cnc1N)c1c(Cl)ccc(F)c1Cl [crizotinib]
In short: as §1

[5] = compound: C[C@@H]1COCCN1C2=NC(=NC(=C2)C3(CC3)S(=O)(=O)C)C4=C5C=CNC5=CC=C4
In short: as §1

[6] = compound: C[C@H](C1=CC=C(C=C1)C(=O)NC2=C3C=CNC3=NC=C2)N
In short: as §1

gandotinib = compound: Cc1cc(Nc2cc(CN3CCOCC3)c3nc(C)c(Cc4ccc(Cl)cc4F)n3n2)n[nH]1 [gandotinib]
In short: as §1

[7] = compound: Cc1cc(SCc2sc(-c3ccc(C(F)(F)F)cc3)nc2C)ccc1OCC(=O)O
In short: as §1

doramapimod = compound: Cc1ccc(-n2nc(C(C)(C)C)cc2NC(=O)Nc2ccc(OCCN3CCOCC3)c3ccccc23)cc1 [doramapimod]
In short: as §1

ispinesib = compound: Cc1ccc(C(=O)N(CCCN)[C@@H](c2nc3cc(Cl)ccc3c(=O)n2Cc2ccccc2)C(C)C)cc1 [ispinesib]
In short: as §1

duvelisib = compound: C[C@H](Nc1ncnc2nc[nH]c12)c1cc2cccc(Cl)c2c(=O)n1-c1ccccc1 [duvelisib]
In short: as §1

tozasertib = compound: Cc1cc(Nc2cc(N3CCN(C)CC3)nc(Sc3ccc(NC(=O)C4CC4)cc3)n2)n[nH]1 [tozasertib]
In short: as §1

Measured: log2 fold change

ICAM1 (UniProt P05362)
inactive: [1] -0.018 | filanesib 0.132 | zotarolimus -0.038 | idasanutlin 0.042 | alisertib 0.002 | [2] 0.08 | gefitinib 0.029 | [3] 0.104 | lapatinib -0.028 | pictilisib 0 | [4] 0.052 | crizotinib 0.142 | [5] 0.026 | [6] -0.069 | gandotinib -0.134 | [7] -0.054 | doramapimod -0.012 | ispinesib 0.121

HSPA8 (UniProt E9PK54)
inactive: [1] 0.011 | filanesib 0.033 | zotarolimus -0.015 | idasanutlin -0.037 | alisertib -0.186 | [2] -0.208 | gefitinib -0.077 | [3] -0.002 | lapatinib 0.17 | pictilisib -0.071 | [4] -0.05 | crizotinib -0.023 | [5] -0.272 | [6] 0.334 | gandotinib 0.01 | [7] 0.088 | doramapimod 0.143 | ispinesib 0.012

HINT2 (UniProt Q9BX68)
inactive: [1] -0.104 | filanesib -0.005 | zotarolimus 0.068 | idasanutlin 0.062 | alisertib 0.003 | [2] -0.079 | gefitinib 0.065 | [3] 0.057 | lapatinib -0.069 | pictilisib -0.017 | [4] -0.011 | crizotinib 0.06 | [6] -0.154 | duvelisib 0.131 | gandotinib -0.07 | tozasertib 0.162 | [7] -0.001 | doramapimod 0.049 | ispinesib 0.222

HMGCLL1 (UniProt Q8TB92)
inactive: [1] -0.206 | filanesib 0.003 | zotarolimus 0.001 | idasanutlin 0.035 | alisertib 0.016 | gefitinib 0.026 | [3] 0.073 | pictilisib 0.008 | [4] 0.016 | crizotinib -0.113 | [5] 0.111 | [6] -0.001 | duvelisib 0.16 | gandotinib -0.065 | tozasertib 0.039 | [7] 0.008 | doramapimod 0.05

HNRNPK isoform 3 (UniProt P61978)
inactive: [1] -0.025 | filanesib 0.077 | alisertib -0.063 | gefitinib -0.066 | [3] 0.005 | pictilisib 0.057 | [4] -0.056 | crizotinib -0.009 | [5] -0.237 | gandotinib -0.082 | [7] -0.037 | doramapimod 0.05 | ispinesib 0.014

IBTK (UniProt Q9P2D0)
inactive: [1] -0.012 | filanesib 0.357 | zotarolimus -0.028 | idasanutlin 0.289 | [2] 0.042 | gefitinib 0.073 | lapatinib -0.026 | pictilisib -0.126 | [4] -0.148 | crizotinib -0.055 | [5] -0.362 | [6] 0.306 | duvelisib -0.075 | gandotinib 0.119 | tozasertib 0.048 | [7] 0.046 | doramapimod 0.225 | ispinesib -0.311

HP1BP3 (UniProt Q5SSJ5)
inactive: [1] 0.041 | filanesib 0.145 | zotarolimus -0.003 | idasanutlin 0.095 | alisertib -0.069 | [2] -0.053 | gefitinib 0.154 | [3] -0.024 | lapatinib 0.044 | pictilisib 0.04 | [4] 0.002 | crizotinib -0.121 | [5] -0.013 | [6] 0.163 | gandotinib 0.039 | [7] 0.121 | doramapimod 0.035 | ispinesib -0.079

HIP1R (UniProt O75146)
inactive: [1] -0.011 | filanesib -0.039 | zotarolimus -0.034 | idasanutlin -0.046 | alisertib 0.114 | [2] 0.027 | gefitinib -0.025 | [3] 0 | lapatinib -0.041 | pictilisib -0.011 | [4] 0.016 | crizotinib -0.1 | [5] 0.058 | [6] 0.026 | gandotinib -0.069 | [7] 0.029 | doramapimod 0.007 | ispinesib -0.097

HNRNPR (UniProt O43390)
inactive: [1] -0.083 | filanesib 0.034 | zotarolimus 0.156 | alisertib -0.293 | [2] -0.082 | gefitinib -0.042 | [3] -0.103 | lapatinib 0.129 | [4] -0.036 | crizotinib -0.291 | [5] -0.209 | [6] 0.289 | doramapimod 0.054

Copied from above (two entries):
HIP1R (UniProt O75146)
inactive: [1] -0.011 | filanesib -0.039 | zotarolimus -0.034 | idasanutlin -0.046 | alisertib 0.114 | [2] 0.027 | gefitinib -0.025 | [3] 0 | lapatinib -0.041 | pictilisib -0.011 | [4] 0.016 | crizotinib -0.1 | [5] 0.058 | [6] 0.026 | gandotinib -0.069 | [7] 0.029 | doramapimod 0.007 | ispinesib -0.097

HNRNPR (UniProt O43390)
inactive: [1] -0.083 | filanesib 0.034 | zotarolimus 0.156 | alisertib -0.293 | [2] -0.082 | gefitinib -0.042 | [3] -0.103 | lapatinib 0.129 | [4] -0.036 | crizotinib -0.291 | [5] -0.209 | [6] 0.289 | doramapimod 0.054

Going on with the list:

HSPA2 (UniProt P54652)
inactive: [1] -0.103 | filanesib 0.026 | idasanutlin 0.032 | alisertib -0.077 | gefitinib 0.005 | [3] 0.076 | [4] 0.011 | crizotinib 0.123 | doramapimod -0.003 | ispinesib -0.025

HS1BP3 (UniProt Q53T59)
inactive: [1] 0.032 | filanesib -0.085 | zotarolimus 0.02 | idasanutlin 0.039 | [2] 0.087 | gefitinib -0.196 | lapatinib 0.118 | [4] 0.06 | crizotinib -0.044 | [5] 0.028 | [6] 0.143 | [7] -0.012 | doramapimod 0.089 | ispinesib -0.165
